Experimental data taken from patent US11234979B2, “Heteroaryl compounds as muscarinic M1 receptor positive allosteric modulators” (SUVEN LIFE SCIENCES LIMITED, priority 2017, dated 2022).

System: hippocampal theta oscillations
Test: Theta modulation in dorsal hippocampus of anesthetized rats in combination with donepezil
Format: in vivo, Male Wistar rats
Settings: anesthetized rat, donepezil alone 0.3 mg/kg, i.v.
From the text: Evaluation of Theta Modulation in Dorsal Hippocampus of Anesthetized Male Wistar
Male Wistar rats (240-320 g) were anesthetized by Intraperitoneal administration of urethane (1.2 to 1.5 g/kg) for implantation of a catheter in the left femoral vein. The animal was placed in a stereotaxic frame for implanting an electrode (stainless steel wire, Plastics One) into the dorsal hippocampus (AP: −3.8 mm; ML: +2.2 mm; DV: −2.5 mm; Paxinos and Watson, 2004). Bipolar stimulating electrode (untwisted stainless steel wires, separated by 0.75-1.0 mm at their tips, Plastics One) was implanted in the Nucleus Pontis Oralis (NPO; AP: −7.8 mm; ML: 1.8 mm; DV: −6.0 mm; Paxinos and Watson, 2004). Additionally one electrode was implanted into the cerebellum which served as a reference. Hippocampal θ rhythm was evoked via a 6-s electrical stimulation train (20-160 μA, 0.3-ms pulse duration, 250 Hz) delivered to the NPO at a rate of 0.01 trains/s with a Grass S88 stimulator and PSIU6 stimulus isolation unit (Grass Medical Instruments, Quincy, Mass.). EEG was recorded at a rate of 1000 Hz using Ponemah (Version 5.2) software and stored for off-line analysis using NeuroScore (Version 3.0). […]
Power in the θ rhythm frequency in the stimulation period during the 30-min baseline period was calculated and the % changes in these measures post treatment were calculated. […]

Structure (SMILES): COc1cc2c(cc1OC)C(=O)C(CC1CCN(Cc3ccccc3)CC1)C2 (stereo not shown) [donepezil, reference compound]
- hippocampal θ power: moderate increase
